# Assay results published in PubChem BioAssay AID445 (National Center for Advancing Translational Sciences (NCATS), 2006).
# The other results are listed elsewhere or left out. The main result of the screen is listed elsewhere. These columns were measured beside it and carry no call. The list favours compounds with an active or inconclusive main result. Words in brackets tell the shape of the fitted curve; partial curves, single points and poor fits give uncertain potencies.
# Test: IkB Signaling
# Conditions: ABC-DLBCL IkBa-CBG/CBR dual luciferase ratio (green luciferase fused to IkBa over red control in OCI-Ly3 lymphoma cells), 4 h
# From the text: NIH Molecular Libraries Screening Centers Network [MLSCN]
# NIH Chemical Genomics Center [NCGC]
# Nuclear factor kappa-B (NF-kappa-B) plays an important role in normal B cell development and survival. Diffuse large B cell lymphoma (DLBCL) is the most commonly observed type of non-Hodgkin's lymphoma. Gene expression analysis has identified an activated B cell-like subtype of DLBCL (ABC-DLBCL) which expresses known NF-kappa-B target genes. […] However, targets upstream of IKK have been largely unexplored and so nodes upstream of IKK in the NF-kappa-B pathway remain untested due to the lack of chemical probes.
# A cell-sensor assay for I-kappa-B-alpha stabilization was developed with NIH investigator Dr. R. Eric Davis in Dr. Louis M. Staudt's laboratory. The assay uses green (CBG68) and red (CBR) emitting beetle luciferases [Chroma-Glo(TM) developed by Promega Corp.] where the green luciferase is fused to I-kappa-B-alpha and the red luciferase is present in its native state. Both luciferase genes are stably present in the OCI-Ly3 human ABC DLBCL cell line, but their expression is under the control of tetracycline-inducible promoters. Following the addition of doxycycline to induce expression of the luciferases, the green luminescence in control cultures rises only slowly because the CBG fusion partner I-kappa-B-alpha is targeted by IKK activity for rapid degradation. In contrast, green luminescence rises rapidly in the presence of proteasome inhibitors or IKK inhibitors. The rise in red luminescence of CBR is not affected by proteasome or IKK inhibitors, and serves as normalization for cell number and nonspecific effects. Compounds were screened as a concentration-titration series that ranged from 57 uM to 0.7 nM.
# NCGC Assay Protocol Summary:
# Cells were seeded in 1536-well plates at 5000 cells/3ul in IMDM medium containing 0.5% FBS, w/o phenol red, L-glutamine, 25 mM HEPES, 3 mg/ml sodium bicarbonate. After centrifugation for 1 min. at 1000 rpm, 23 nl of compounds or DMSO were delivered to each well using a pin tool. Then 1ul 80ng/ml doxycycline was dispensed into white solid 1536-well plates and the plates were incubated at 37C/5% C02 in a cell incubator for 4 hrs. Then 4 ul Chroma-Glo luminescent substrate mix (Promega) was added to each well. The plate was incubated at R.T. for 10-15 min. The plates were measured on a ViewLux plate reader for green luminescence (540/20 nm filter) and red luminescence (618/8 nm filter). The green and red luminescent signals were corrected for red and green luminescence filter overlap using previously determined filter calibration constants (determined using the procedure outlined in the Promega Technical Manual). The %Activity was determined from the ratio of corrected green/red luminescent values. Green luminescent and ratio %Activity was determined by normalizing to the difference in signal between basal cells (0% Activity) and cells incubated with 10 uM of the proteasome inhibitor MG-132 (100% Activity). Red luminescent %Activity was normalized to the difference between red luminesence in basal cells (0%Activity) and zero luminescence (-100% Activity).
# Concentration-response curves were fitted to the signals arising from the green luminescence (I-kappa-B-alpha-luciferase fusion; IkB-luc) and the red luminescence (unfused luciferase; luc) as well as the calculated ratio. The concentration-effect curves were then classified based on curve quality (r2), response magnitude and degree of measured activity. Compounds were then categorized based on their concentration-response curves for all three datasets (Ikb-luc, luc and ratio).
# Keywords: IKK, I-kappa-B, IkB, IkBa, cytotoxicity, luminescence, MLSMR, MLSCN, NIH Roadmap, qHTS, NCGC
# [1] = measured here: control luc red channel unless noted
structure (smiles),measurement,setting,value
COc1ccc(OC)c(NC(=O)Cn2cc(C(=O)c3ccco3)c3ccccc32)c1,AC50,[1],"12.6 µM [falling, partial curve]"
Cc1ccc(-c2nnc(Nc3ccc(Br)cc3)c3ccccc23)cc1S(=O)(=O)N1CCCCC1,AC50,[1],"0.631 µM [falling, full curve]"
CCC(=O)NC1CC(=O)N(c2ccc3c(c2)OCCO3)C1 (stereo not given),AC50,[1],"7.94 µM [rising, single point]"
COc1ccccc1NC(=O)Cn1c(=O)n(Cc2ccco2)c(=O)c2oc3ccccc3c21,AC50,[1],"2.51 µM [falling, full curve, poor fit]"
O=C(CN1C(=O)C(c2ccc(F)cc2)=NC12CCCCCC2)Nc1ccc(F)c(Cl)c1,AC50,[1],"15.8 µM [falling, partial curve]"
COc1cc(-c2cc(OC)c3c(C)oc(C)c3c(=O)c2)ccc1OC(=O)c1ccccc1C,AC50,[1],"10 µM [falling, partial curve]"
Cc1cc(C)c2c(-n3cccc3)c(C(=O)NCCc3ccc(Cl)cc3)sc2n1,AC50,[1],"20 µM [rising, partial curve, poor fit]"
COc1ccc(-c2cc(C(=O)Nc3c(Cl)cccc3Cl)no2)cc1OC,AC50,[1],"25.1 µM [falling, partial curve]"
CCN(CCCNC(=O)c1cc2c(=O)n(CC)c3ccccc3c2s1)c1cccc(C)c1,AC50,[1],"10 µM [falling, partial curve]"
O=C(Nc1ccccn1)c1ccc(NC(=O)c2ccco2)cc1,AC50,[1],"31.6 µM [falling, single point]"
COc1ccc2c(c1)c(=O)c(S(=O)(=O)c1ccc(C)c(C)c1)cn2CC(=O)Nc1ccccc1,AC50,[1],"6.31 µM [falling, partial curve]"
CCc1ccc(N2CCn3c2nc2c3c(=O)n(Cc3ccc(F)cc3)c(=O)n2C)cc1,AC50,[1],"15.8 µM [falling, partial curve]"
COc1ccc(Cl)cc1NC(=O)CN(c1cc(C)cc(C)c1)S(=O)(=O)c1c(C)n[nH]c1C,AC50,[1],"10 µM [falling, partial curve]"
Cc1cccc(NC(=O)Nc2ccc(C#N)cc2)n1,AC50,measured here: IkB-luc green channel,"0.794 µM [falling, full curve, poor fit]"
same,AC50,measured here: control luc red channel,"0.631 µM [falling, full curve, poor fit]"
COc1cc(-c2noc(C3CC(=O)N(c4ccc5c(c4)OCCO5)C3)n2)cc(OC)c1OC (stereo not given),AC50,[1],"15.8 µM [falling, partial curve]"
Cc1ccc(CNc2ccc(-c3nc(-c4ccco4)no3)cc2[N+](=O)[O-])cc1,AC50,[1],"15.8 µM [falling, partial curve]"
CCOc1ccc(-c2nc3c(C#N)c[nH]n3c2NC2CCCC2)cc1,AC50,[1],"31.6 µM [falling, single point]"
COc1ccc(NS(=O)(=O)c2ccc(NC(=O)N3CCCC3)cc2)cc1,AC50,[1],"1.26 µM [rising, full curve]"
Cc1ccc(-c2cn3c(n2)sc2cc(C(=O)NCCCc4ccccc4)ccc23)cc1,AC50,[1],"12.6 µM [falling, partial curve]"
CCc1ccccc1NC(=O)C1CCCN(S(=O)(=O)c2cccc3nsnc23)C1 (stereo not given),AC50,[1],"12.6 µM [falling, partial curve]"
COc1ccc(CCNC(=O)CCc2c(C)nc3c(c(C)nn3-c3ccc(C)cc3)c2C)c(OC)c1,AC50,[1],"5.01 µM [falling, full curve]"
CCOc1ccc(N(CC(=O)Nc2ccccc2C)S(=O)(=O)c2c(C)noc2C)cc1,AC50,[1],"3.16 µM [rising, full curve] [measured here: IkB-luc green channel]"
COc1ccc(Nc2cc(C)nc(-n3nc(C)cc3C)n2)cc1Cl,AC50,[1],"3.98 µM [rising, partial curve]"
CN(CCC#N)c1ncnc2scc(-c3ccccc3)c12,AC50,[1],"12.6 µM [falling, partial curve]"
Cc1cc(C)c(C#N)c(N2CCN(CCOc3ccc(Cl)cc3)CC2)n1,AC50,[1],"12.6 µM [falling, partial curve]"
COc1ccc(OC)c(NS(=O)(=O)c2ccc3c(c2)CCCN3C(=O)C2CCC2)c1,AC50,[1],"31.6 µM [falling, single point]"
O=C(Nc1ccc(F)cc1F)c1cc(CN2CCOCC2)on1,AC50,[1],"12.6 µM [falling, partial curve]"
Cc1ccc(S(=O)(=O)Nc2ccc3c(c2)CCCN3C(=O)c2cccs2)cc1C,AC50,[1],"31.6 µM [falling, partial curve]"
COc1cccc(C2=NOC(C(=O)N3CCc4ccccc4C3)C2)c1 (stereo not given),AC50,[1],"15.8 µM [falling, partial curve]"
O=C(NCC(c1ccc2c(c1)OCO2)N1CCOCC1)C(=O)Nc1ccc(Cl)cc1 (stereo not given),AC50,[1],"1 µM [falling, full curve]"
Oc1cccc(-c2nc(-c3cccs3)c(-c3cccs3)[nH]2)c1,AC50,[1],"15.8 µM [falling, partial curve]"
Cc1ccc(NS(=O)(=O)c2ccc(-c3cc(C)no3)cc2)c(C)c1,AC50,[1],"31.6 µM [falling, partial curve]"
Cn1c(=O)oc2cc(S(=O)(=O)N3CCCC(C(=O)N4CCN(c5ccc(F)cc5)CC4)C3)ccc21 (stereo not given),AC50,[1],"15.8 µM [falling, partial curve]"
Cc1ccccc1OCC(=O)Nc1nnc(S(=O)(=O)N2CCCCCC2)s1,AC50,[1],"20 µM [rising, partial curve]"
CCc1nn2c(=O)cc(COC(=O)c3ccccc3NC(=O)c3ccc(C(C)(C)C)cc3)nc2s1,AC50,[1],"3.98 µM [falling, full curve]"
CC(Oc1ccc(Br)cc1)C(=O)N(Cc1nc(-c2ccccc2)no1)C(C)C (stereo not given),AC50,[1],"25.1 µM [falling, partial curve]"
O=C(NCCCN1CCN(c2ccccc2)CC1)c1ccc2nc(CCc3ccccc3)oc2c1,AC50,[1],"31.6 µM [falling, partial curve]"
Cc1ccc(-n2c(-c3cccc(C)c3)nc3c(cnn3-c3ccccc3)c2=O)cc1,AC50,[1],"31.6 µM [falling, single point]"
CCOC(=O)CSc1ncnc2c1cnn2-c1ccc(C)cc1,AC50,[1],"31.6 µM [falling, partial curve]"

# 3 entries drawn at random from the list so far:
structure (smiles),measurement,setting,value
O=C(Nc1ccccn1)c1ccc(NC(=O)c2ccco2)cc1,AC50,[1],"31.6 µM [falling, single point]"
Cc1cccc(NC(=O)Nc2ccc(C#N)cc2)n1,AC50,measured here: IkB-luc green channel,"0.794 µM [falling, full curve, poor fit]"
Cc1cc(C)c2c(-n3cccc3)c(C(=O)NCCc3ccc(Cl)cc3)sc2n1,AC50,[1],"20 µM [rising, partial curve, poor fit]"
